Experimental data published in the M2OR odorant receptor database.
Numbering of substitutions follows the chain as printed. The entries are a selection whose mix differs from that of the whole data set. Calls are pooled over several reports, among them a noisy single-well screen. This is one part of the list.

Chains of the proteins cited; added tags and fusions are not shown. A change or cut given only in a name is not applied to a line headed by its entry. Chains listed by the source or under a name are the forms on record and can include a tag or linker.
UniProt Q8NGZ5: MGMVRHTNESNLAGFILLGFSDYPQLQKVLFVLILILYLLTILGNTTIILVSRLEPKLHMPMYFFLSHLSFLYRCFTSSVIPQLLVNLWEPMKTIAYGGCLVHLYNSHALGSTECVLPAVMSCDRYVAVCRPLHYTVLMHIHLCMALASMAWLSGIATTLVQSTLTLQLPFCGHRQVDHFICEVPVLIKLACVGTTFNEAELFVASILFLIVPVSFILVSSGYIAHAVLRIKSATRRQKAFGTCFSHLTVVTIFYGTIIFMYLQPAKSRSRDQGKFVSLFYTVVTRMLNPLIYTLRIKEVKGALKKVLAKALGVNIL
OR2F1, as listed by the source: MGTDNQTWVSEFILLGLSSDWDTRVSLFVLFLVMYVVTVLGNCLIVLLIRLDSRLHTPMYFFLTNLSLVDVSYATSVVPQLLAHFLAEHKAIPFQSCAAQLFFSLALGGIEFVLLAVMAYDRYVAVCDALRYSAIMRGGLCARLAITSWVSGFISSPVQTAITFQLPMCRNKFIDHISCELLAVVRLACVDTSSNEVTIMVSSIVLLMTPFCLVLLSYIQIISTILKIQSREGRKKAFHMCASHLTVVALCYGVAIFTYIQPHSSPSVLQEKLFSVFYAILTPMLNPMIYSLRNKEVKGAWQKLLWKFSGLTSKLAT

Legend:
Conditions in all cases: stereoisomer not certain
[1] = system: T1, OR2C3
T1 sequence (whole entry): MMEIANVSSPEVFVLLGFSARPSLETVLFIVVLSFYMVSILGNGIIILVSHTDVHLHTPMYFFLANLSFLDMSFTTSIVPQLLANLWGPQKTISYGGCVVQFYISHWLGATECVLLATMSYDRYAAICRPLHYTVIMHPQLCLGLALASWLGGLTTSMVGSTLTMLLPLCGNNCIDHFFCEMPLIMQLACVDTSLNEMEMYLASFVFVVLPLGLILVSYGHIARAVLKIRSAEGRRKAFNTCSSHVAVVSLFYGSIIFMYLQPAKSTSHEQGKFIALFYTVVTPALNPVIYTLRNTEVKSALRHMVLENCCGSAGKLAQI
Outline: (§1)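 Transient luciferase assays in mammalian cell lines were common, though methods varied by source. The values come from published papers and their supplementary material, with extra details from the original authors when needed. Responsive refers to a measured signal the original authors judged statistically different from baseline, and non-responsive (inactive) to the remainder.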

[2] = molecular target: T2, OR2D2 (Homo sapiens) (UniProt Q9H210)
T2 sequence (whole entry): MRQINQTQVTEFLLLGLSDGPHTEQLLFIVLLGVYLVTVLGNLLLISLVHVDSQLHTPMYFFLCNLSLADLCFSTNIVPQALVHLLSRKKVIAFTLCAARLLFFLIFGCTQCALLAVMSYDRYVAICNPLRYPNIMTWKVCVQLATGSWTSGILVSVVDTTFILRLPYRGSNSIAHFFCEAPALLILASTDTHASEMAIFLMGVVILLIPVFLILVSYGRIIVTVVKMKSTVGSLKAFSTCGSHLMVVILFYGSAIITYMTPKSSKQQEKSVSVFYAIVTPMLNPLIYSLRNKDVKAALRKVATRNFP
Outline: as §1

[3] = system: T3, OR2D3
T3 sequence (whole entry): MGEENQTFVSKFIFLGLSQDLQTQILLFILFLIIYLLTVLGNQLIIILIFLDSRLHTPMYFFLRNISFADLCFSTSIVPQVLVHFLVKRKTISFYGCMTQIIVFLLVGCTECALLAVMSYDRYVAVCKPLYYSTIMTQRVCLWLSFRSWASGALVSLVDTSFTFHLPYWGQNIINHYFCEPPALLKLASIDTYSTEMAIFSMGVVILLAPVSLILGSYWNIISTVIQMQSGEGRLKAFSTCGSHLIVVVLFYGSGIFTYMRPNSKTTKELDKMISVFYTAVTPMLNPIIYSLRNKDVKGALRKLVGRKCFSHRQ
Outline: as §1

[4] = molecular target: T4, OR2F1 (Homo sapiens) (UniProt Q13607)
T4 sequence (whole entry): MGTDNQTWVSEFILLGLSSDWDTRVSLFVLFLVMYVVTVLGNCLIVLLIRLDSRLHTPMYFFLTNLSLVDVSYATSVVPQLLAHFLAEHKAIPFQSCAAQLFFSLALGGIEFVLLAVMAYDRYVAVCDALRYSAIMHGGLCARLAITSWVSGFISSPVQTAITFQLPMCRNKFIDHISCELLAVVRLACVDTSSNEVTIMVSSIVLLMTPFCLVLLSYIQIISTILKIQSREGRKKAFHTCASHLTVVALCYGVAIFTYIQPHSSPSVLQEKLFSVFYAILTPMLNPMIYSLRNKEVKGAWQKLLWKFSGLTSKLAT
Outline: as §1

[5] = system: T5, OR2F2
T5 sequence (whole entry): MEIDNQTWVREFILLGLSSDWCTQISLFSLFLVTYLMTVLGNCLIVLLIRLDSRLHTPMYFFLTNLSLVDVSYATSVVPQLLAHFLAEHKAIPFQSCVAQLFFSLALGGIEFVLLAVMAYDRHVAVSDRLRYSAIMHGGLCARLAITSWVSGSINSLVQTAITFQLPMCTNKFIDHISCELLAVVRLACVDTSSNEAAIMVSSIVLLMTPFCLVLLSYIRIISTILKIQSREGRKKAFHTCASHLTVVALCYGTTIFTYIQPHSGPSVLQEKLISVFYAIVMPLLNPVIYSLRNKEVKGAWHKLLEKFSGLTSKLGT
Outline: as §1

[6] = system: T6, OR2G2
T6 sequence (whole entry): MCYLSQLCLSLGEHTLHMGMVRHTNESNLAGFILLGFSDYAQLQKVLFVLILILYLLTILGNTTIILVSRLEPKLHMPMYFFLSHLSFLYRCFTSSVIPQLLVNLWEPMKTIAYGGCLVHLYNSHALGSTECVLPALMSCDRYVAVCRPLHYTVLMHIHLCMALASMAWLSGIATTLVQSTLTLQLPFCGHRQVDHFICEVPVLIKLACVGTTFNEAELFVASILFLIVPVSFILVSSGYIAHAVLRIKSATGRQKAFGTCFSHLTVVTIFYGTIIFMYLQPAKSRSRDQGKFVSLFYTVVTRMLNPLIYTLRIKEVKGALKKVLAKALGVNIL
Outline: as §1

[7] = system: T7, OR2G2; remark: listed apart in the source
T7 sequence (whole entry): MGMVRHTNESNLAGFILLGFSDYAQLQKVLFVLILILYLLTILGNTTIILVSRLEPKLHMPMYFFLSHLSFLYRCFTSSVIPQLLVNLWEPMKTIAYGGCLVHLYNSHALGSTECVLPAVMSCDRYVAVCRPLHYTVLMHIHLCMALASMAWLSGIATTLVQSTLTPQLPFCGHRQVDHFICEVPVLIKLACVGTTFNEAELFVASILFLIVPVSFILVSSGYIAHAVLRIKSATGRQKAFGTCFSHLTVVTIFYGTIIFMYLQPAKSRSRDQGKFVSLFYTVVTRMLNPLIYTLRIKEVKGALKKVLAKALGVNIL
Outline: as §1

[8] = molecular target: T8, OR2G3 (Homo sapiens) (UniProt Q8NGZ4)
T8 sequence (whole entry): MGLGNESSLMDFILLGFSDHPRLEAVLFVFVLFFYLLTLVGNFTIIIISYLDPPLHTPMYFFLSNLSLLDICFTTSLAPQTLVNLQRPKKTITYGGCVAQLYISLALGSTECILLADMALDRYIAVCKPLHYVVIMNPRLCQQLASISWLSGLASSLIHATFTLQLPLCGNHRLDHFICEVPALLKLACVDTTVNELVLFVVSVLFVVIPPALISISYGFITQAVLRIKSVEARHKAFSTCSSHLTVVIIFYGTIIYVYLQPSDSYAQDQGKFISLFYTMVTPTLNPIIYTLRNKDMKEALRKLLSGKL
Outline: as §1

[9] = system: T9, OR2G3
T9 sequence (whole entry): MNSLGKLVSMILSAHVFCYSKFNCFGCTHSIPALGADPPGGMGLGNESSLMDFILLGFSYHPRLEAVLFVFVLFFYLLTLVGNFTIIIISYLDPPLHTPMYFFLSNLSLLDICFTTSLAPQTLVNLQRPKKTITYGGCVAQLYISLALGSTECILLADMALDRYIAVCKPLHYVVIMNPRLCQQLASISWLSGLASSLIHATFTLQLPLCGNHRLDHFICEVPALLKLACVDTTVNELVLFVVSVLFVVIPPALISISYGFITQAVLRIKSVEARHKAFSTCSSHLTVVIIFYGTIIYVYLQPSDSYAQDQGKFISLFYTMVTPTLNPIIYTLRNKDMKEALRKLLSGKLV
Outline: as §1

[10] = molecular target: T10, OR2G6 (Homo sapiens) (UniProt Q5TZ20)
T10 sequence (whole entry): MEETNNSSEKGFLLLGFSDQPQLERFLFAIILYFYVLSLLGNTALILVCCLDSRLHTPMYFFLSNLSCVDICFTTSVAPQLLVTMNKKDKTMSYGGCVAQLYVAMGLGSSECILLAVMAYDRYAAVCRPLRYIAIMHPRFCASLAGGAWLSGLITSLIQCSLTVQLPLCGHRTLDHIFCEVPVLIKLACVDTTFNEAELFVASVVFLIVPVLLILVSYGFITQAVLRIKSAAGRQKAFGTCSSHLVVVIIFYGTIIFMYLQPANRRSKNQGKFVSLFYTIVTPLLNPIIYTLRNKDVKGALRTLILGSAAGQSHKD
Outline: as §1

[11] = molecular target: T11, OR2H1 (Homo sapiens) (UniProt Q9GZK4)
T11 sequence (whole entry): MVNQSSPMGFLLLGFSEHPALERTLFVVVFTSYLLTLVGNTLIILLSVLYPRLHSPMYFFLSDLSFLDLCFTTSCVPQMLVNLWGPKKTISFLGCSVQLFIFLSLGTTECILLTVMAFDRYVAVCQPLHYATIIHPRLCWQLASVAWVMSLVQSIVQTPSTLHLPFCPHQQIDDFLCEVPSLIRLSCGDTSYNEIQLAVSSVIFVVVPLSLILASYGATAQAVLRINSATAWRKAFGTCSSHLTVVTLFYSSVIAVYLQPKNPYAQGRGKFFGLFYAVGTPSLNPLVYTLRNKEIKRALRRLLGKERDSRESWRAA
Outline: as §1

[12] = system: T12, OR2H2
T12 sequence (whole entry): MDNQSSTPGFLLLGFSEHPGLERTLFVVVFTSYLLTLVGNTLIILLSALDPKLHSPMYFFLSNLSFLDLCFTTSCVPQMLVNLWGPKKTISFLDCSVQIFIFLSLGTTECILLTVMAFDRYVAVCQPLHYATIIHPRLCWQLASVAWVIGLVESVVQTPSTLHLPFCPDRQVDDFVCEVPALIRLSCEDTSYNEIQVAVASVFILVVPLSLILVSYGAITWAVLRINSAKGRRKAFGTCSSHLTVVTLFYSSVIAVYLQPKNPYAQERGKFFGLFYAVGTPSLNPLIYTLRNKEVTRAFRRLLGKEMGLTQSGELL
Outline: as §1

[13] = system: OR2F1
Outline: as §1

[14] = system: OR2F1; remark: listed apart in the source
Outline: as §1

[15] = system: OR2F1; remark: listed apart in the source
Outline: as §1

[16] = system: OR2F1; remark: listed apart in the source
Outline: as §1

[17] = molecular target: T13, OR2G2 (Homo sapiens) (UniProt Q8NGZ5)
T13 sequence (whole entry): T7 sequence (whole entry) with A24P, P167L, G236R
Outline: as §1

[18] = molecular target: T14, OR2H2 (Homo sapiens) (UniProt O95918)
T14 sequence (whole entry): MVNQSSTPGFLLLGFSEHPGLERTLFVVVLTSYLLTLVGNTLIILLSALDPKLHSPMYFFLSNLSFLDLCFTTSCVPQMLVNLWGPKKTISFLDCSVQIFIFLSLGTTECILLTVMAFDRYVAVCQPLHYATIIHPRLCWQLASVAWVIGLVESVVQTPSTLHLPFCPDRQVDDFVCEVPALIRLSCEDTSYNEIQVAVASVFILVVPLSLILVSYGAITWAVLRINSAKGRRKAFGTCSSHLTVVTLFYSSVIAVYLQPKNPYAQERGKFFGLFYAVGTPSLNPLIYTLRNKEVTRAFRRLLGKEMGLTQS
Outline: as §1
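Further: active if original authors judged signal statistically different from baseline.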

| SMILES | odorant receptor agonist call [1] | odorant receptor agonist call [2] | odorant receptor agonist call [3] | odorant receptor agonist call [4] | odorant receptor agonist call [5] | odorant receptor agonist call [6] | odorant receptor agonist call [7] | odorant receptor agonist call [8] | odorant receptor agonist call [9] | odorant receptor agonist call [10] | odorant receptor agonist call [11] | odorant receptor agonist call [12] | odorant receptor agonist call [13] | odorant receptor agonist call [14] | odorant receptor agonist call [15] | odorant receptor agonist call [16] | odorant receptor agonist call [17] | odorant receptor agonist call [18] |
| --- | --- | --- | --- | --- | --- | --- | --- | --- | --- | --- | --- | --- | --- | --- | --- | --- | --- | --- |
| COc1cc(C=O)ccc1O | inactive | inactive | inactive | inactive | inactive | inactive | inactive | inactive | inactive | inactive | inactive | inactive | – | – | – | – | – | – |
| CC(C)C=O | inactive | inactive | inactive | inactive | inactive | inactive | inactive | inactive | inactive | inactive | inactive | inactive | – | – | – | – | – | – |
| C=CCc1ccc(OC(C)=O)c(OC)c1 | active | active | inactive | active | inactive | inactive | inactive | inactive | inactive | inactive | inactive | inactive | inactive | inactive | inactive | inactive | inactive | – |
| c1ccc(Oc2ccccc2)cc1 | inactive | inactive | inactive | inactive | inactive | inactive | inactive | inactive | inactive | inactive | inactive | inactive | – | – | – | – | – | – |
| CCCCCCCC=O | inactive | inactive | inactive | inactive | inactive | inactive | inactive | inactive | inactive | inactive | inactive | inactive | – | – | – | – | – | active |
| CC1COCc2cc3c(cc21)C(C)(C)C(C)C3(C)C (stereo not drawn) | active | inactive | active | inactive | active | active | active | active | inactive | active | active | active | – | – | – | – | – | – |
